{"source": "ChEMBL document CHEMBL1687827", "about": "“Profiling the Aspergillus fumigatus proteome in response to caspofungin” (2011)", "format_in_all_cases": "functional", "key": {"[1]": {"tested_on": "Aspergillus fumigatus", "assay": "Induction of change in Ribosomal L28e protein family gene expression in drug-susceptible Aspergillus fumigatus KU80 delta-akuB at 0.12 ug/ml after 24 hrs in YPD medium by microarray analysis relative to control"}, "[2]": {"tested_on": "Aspergillus fumigatus", "assay": "Induction of change in ubiquinol-cytochrome C reductase complex core protein 2, putative protein level in iTRAQ-116 labelled secreted fraction of drug-susceptible Aspergillus fumigatus KU80 delta-akuB at 0.12 ug/ml after 48 hrs in YPD medium by MS (MS/MS) analysis relative to control"}, "[3]": {"tested_on": "Aspergillus fumigatus", "assay": "Induction of change in cytosolic small ribosomal subunit S15, putative gene expression in drug-susceptible Aspergillus fumigatus KU80 delta-akuB at 0.12 ug/ml after 24 hrs in YPD medium by microarray analysis relative to control"}, "[4]": {"tested_on": "Aspergillus fumigatus", "assay": "Induction of change in thioredoxin protein level in iTRAQ-118 labelled cell wall fraction of drug-susceptible Aspergillus fumigatus KU80 delta-akuB at 0.12 ug/ml after 24 hrs in YPD medium by MS (MS/MS) analysis relative to control"}, "[5]": {"tested_on": "Aspergillus fumigatus", "assay": "Induction of change in NAD-dependent formate dehydrogenase gene expression in drug-susceptible Aspergillus fumigatus KU80 delta-akuB at 0.12 ug/ml after 48 hrs in YPD medium by microarray analysis relative to control"}, "[6]": {"tested_on": "Aspergillus fumigatus", "assay": "Induction of change in nucleoside diphosphate kinase protein level in iTRAQ-116 labelled secreted fraction of drug-susceptible Aspergillus fumigatus KU80 delta-akuB at 0.12 ug/ml after 48 hrs in YPD medium by MS (MS/MS) analysis relative to control"}, "[7]": {"tested_on": "Aspergillus fumigatus", "assay": "Induction of change in nascent polypeptide-associated complex (NAC) subunit, putative protein level in iTRAQ-116 labelled secreted fraction of drug-susceptible Aspergillus fumigatus KU80 delta-akuB at 0.12 ug/ml after 48 hrs in YPD medium by MS (MS/MS) analysis relative to control"}, "[8]": {"tested_on": "Aspergillus fumigatus", "assay": "Induction of change in Ribosomal L28e protein family protein level in iTRAQ114 labelled cell wall fraction of drug-susceptible Aspergillus fumigatus KU80 delta-akuB at 0.12 ug/ml after 24 hrs in YPD medium by MS (MS/MS) analysis relative to control"}, "[9]": {"tested_on": "Aspergillus fumigatus", "assay": "Induction of change in antigenic mitochondrial protein HSP60, putative protein level in iTRAQ114 labelled secreted fraction of drug-resistant Aspergillus fumigatus EMFR-S678P at 0.12 ug/ml after 24 hrs in YPD medium by MS (MS/MS) analysis relative to control"}, "[10]": {"tested_on": "Aspergillus fumigatus", "assay": "Induction of change in ribosomal protein L34 protein, putative protein level in iTRAQ-118 labelled cell wall fraction of drug-susceptible Aspergillus fumigatus KU80 delta-akuB at 0.12 ug/ml after 24 hrs in YPD medium by MS (MS/MS) analysis relative to control"}, "[11]": {"tested_on": "Aspergillus fumigatus", "assay": "Induction of change in 40S ribosomal protein S10b protein level in iTRAQ114 labelled cell wall fraction of drug-susceptible Aspergillus fumigatus KU80 delta-akuB at 0.12 ug/ml after 24 hrs in YPD medium by MS (MS/MS) analysis relative to control"}, "[12]": {"tested_on": "Aspergillus fumigatus", "assay": "Induction of change in Hsp90 binding co-chaperone (Sba1), putative protein level in iTRAQ121 labelled cell wall fraction of drug-susceptible Aspergillus fumigatus KU80 delta-akuB at 0.12 ug/ml after 48 hrs in YPD medium by MS (MS/MS) analysis relative to control"}, "[13]": {"tested_on": "Aspergillus fumigatus", "assay": "Induction of change in tripeptidyl-peptidase (TppA), putative protein level in iTRAQ-116 labelled secreted fraction of drug-resistant Aspergillus fumigatus EMFR-S678P at 0.12 ug/ml after 48 hrs in YPD medium by MS (MS/MS) analysis relative to control"}, "[14]": {"tested_on": "Aspergillus fumigatus", "assay": "Induction of change in hypothetical gene locus AFUA_5G07590 expression in drug-susceptible Aspergillus fumigatus KU80 delta-akuB at 0.12 ug/ml after 48 hrs in YPD medium by microarray analysis relative to control"}, "[15]": {"tested_on": "Aspergillus fumigatus", "assay": "Induction of change in outer mitochondrial membrane protein porin protein level in iTRAQ-116 labelled cell wall fraction of drug-susceptible Aspergillus fumigatus KU80 delta-akuB at 0.12 ug/ml after 48 hrs in YPD medium by MS (MS/MS) analysis relative to control"}, "[16]": {"tested_on": "Aspergillus fumigatus", "assay": "Induction of change in 40S ribosomal protein S8e protein level in iTRAQ-118 labelled cell wall fraction of drug-resistant Aspergillus fumigatus EMFR-S678P at 0.12 ug/ml after 24 hrs in YPD medium by MS (MS/MS) analysis relative to control"}, "[17]": {"tested_on": "Aspergillus fumigatus", "assay": "Induction of change in glucosamine-fructose-6-phosphate aminotransferase protein level in iTRAQ121 labelled cell wall fraction of drug-susceptible Aspergillus fumigatus KU80 delta-akuB at 0.12 ug/ml after 48 hrs in YPD medium by MS (MS/MS) analysis relative to control"}, "[18]": {"tested_on": "Aspergillus fumigatus", "assay": "Induction of change in 60S ribosomal protein L23 protein level in iTRAQ114 labelled cell wall fraction of drug-susceptible Aspergillus fumigatus KU80 delta-akuB at 0.12 ug/ml after 24 hrs in YPD medium by MS (MS/MS) analysis relative to control"}, "[19]": {"tested_on": "Aspergillus fumigatus", "assay": "Induction of change in molecular chaperone and allergen Mod-E/Hsp90/Hsp1 protein level in iTRAQ-116 labelled secreted fraction of drug-susceptible Aspergillus fumigatus KU80 delta-akuB at 0.12 ug/ml after 48 hrs in YPD medium by MS (MS/MS) analysis relative to control"}, "[20]": {"tested_on": "Aspergillus fumigatus", "assay": "Induction of change in ribosomal protein S23 protein level in iTRAQ114 labelled cell wall fraction of drug-susceptible Aspergillus fumigatus KU80 delta-akuB at 0.12 ug/ml after 24 hrs in YPD medium by MS (MS/MS) analysis relative to control"}, "[21]": {"tested_on": "Aspergillus fumigatus", "assay": "Induction of change in IgE-binding protein level in iTRAQ114 labelled secreted fraction of drug-resistant Aspergillus fumigatus EMFR-S678P at 0.12 ug/ml after 24 hrs in YPD medium by MS (MS/MS) analysis relative to control"}, "[22]": {"tested_on": "Aspergillus fumigatus", "assay": "Induction of change in Ribosomal protein L31e protein level in iTRAQ114 labelled cell wall fraction of drug-susceptible Aspergillus fumigatus KU80 delta-akuB at 0.12 ug/ml after 24 hrs in YPD medium by MS (MS/MS) analysis relative to control"}, "[23]": {"tested_on": "Aspergillus fumigatus", "assay": "Induction of change in peptidyl-prolyl cis-trans isomerase protein level in iTRAQ-118 labelled cell wall fraction of drug-susceptible Aspergillus fumigatus KU80 delta-akuB at 0.12 ug/ml after 24 hrs in YPD medium by MS (MS/MS) analysis relative to control"}, "[24]": {"tested_on": "Aspergillus fumigatus", "assay": "Induction of change in allergen Asp F4 protein level in iTRAQ-116 labelled secreted fraction of drug-resistant Aspergillus fumigatus EMFR-S678P at 0.12 ug/ml after 48 hrs in YPD medium by MS (MS/MS) analysis relative to control"}, "[25]": {"tested_on": "Aspergillus fumigatus", "assay": "Induction of change in cytochrome c protein level in iTRAQ-118 labelled cell wall fraction of drug-susceptible Aspergillus fumigatus KU80 delta-akuB at 0.12 ug/ml after 24 hrs in YPD medium by MS (MS/MS) analysis relative to control"}}, "note": "This continues a long series; more values of the same kind are listed elsewhere.", "data": [{"smiles": "CC[C@H](C)C[C@H](C)CCCCCCCCC(=O)N[C@H]1C[C@@H](O)[C@@H](NCCN)NC(=O)[C@@H]2[C@@H](O)CCN2C(=O)[C@H]([C@H](O)CCN)NC(=O)[C@H]([C@H](O)[C@@H](O)c2ccc(O)cc2)NC(=O)[C@@H]2C[C@@H](O)CN2C(=O)[C@H]([C@@H](C)O)NC1=O", "note": "[CASPOFUNGIN]", "values": [{"measurement": "fold change (FC)", "setting": "[1]", "result": 5.6}, {"measurement": "fold change (FC)", "setting": "[2]", "result": -2.1}, {"measurement": "fold change (FC)", "setting": "[3]", "result": 3.9}, {"measurement": "fold change (FC)", "setting": "[4]", "result": -2}, {"measurement": "fold change (FC)", "setting": "[5]", "result": -3.6}, {"measurement": "fold change (FC)", "setting": "[6]", "result": 3.7}, {"measurement": "fold change (FC)", "setting": "[7]", "result": -16}, {"measurement": "fold change (FC)", "setting": "[8]", "result": 1.3}, {"measurement": "fold change (FC)", "setting": "[9]", "result": 1.15}, {"measurement": "fold change (FC)", "setting": "[10]", "result": 2.8}, {"measurement": "fold change (FC)", "setting": "[11]", "result": 2.3}, {"measurement": "fold change (FC)", "setting": "[12]", "result": -2.3}, {"measurement": "fold change (FC)", "setting": "[13]", "result": 1.15}, {"measurement": "fold change (FC)", "setting": "[14]", "result": -2.8}, {"measurement": "fold change (FC)", "setting": "[15]", "result": -1.7}, {"measurement": "fold change (FC)", "setting": "[16]", "result": -1.07}, {"measurement": "fold change (FC)", "setting": "[17]", "result": 4}, {"measurement": "fold change (FC)", "setting": "[18]", "result": 2}, {"measurement": "fold change (FC)", "setting": "[19]", "result": -2.1}, {"measurement": "fold change (FC)", "setting": "[20]", "result": 1.9}, {"measurement": "fold change (FC)", "setting": "[21]", "result": 1.52}, {"measurement": "fold change (FC)", "setting": "[22]", "result": 1.1}, {"measurement": "fold change (FC)", "setting": "[23]", "result": -2}, {"measurement": "fold change (FC)", "setting": "[24]", "result": 1.15}, {"measurement": "fold change (FC)", "setting": "[25]", "result": -3.5}]}]}
